According to PubChem BioAssay AID1508600 (Functional Genomics Laboratory (NCATS/FGL), 2020):
About 3,700 (7%) of roughly 53,000 sequences were called active.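 Rule for the calls: active = gene knockdowns whose robust z-score for IL-1 alpha signal is at least 2 or at most -2, so actives lie on both sides; inactive = the rest.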 This is one part of the list.

experiment: Components of the Cytosolic LPS Sensing Pathway: Gene Identification via Genome-wide siRNA Screen; settings: RAW264.7 macrophages, IL-1a HTRF, actives lie on both sides, screened at 100 nM (by protocol), cells primed 5 h with Pam3CSK4 first;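 note: robust z of the log signal after scaling to non-targeting control siRNA wells of the plate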
In short: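 Knockdown: 100 nM siRNA, 48h, RAW264.7. Stimulation: Pam3CSK4 5 h, then LipidA via TransIT-TKO 24 h. Output: supernatant IL-1a HTRF, negative-control-normalized, log robust z-score; viability by CellTiter-Glo.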

Sequence | z-score
GGGUUACAAUAACUGGACATT against Ggcx | active: 2.32
CUGUAUGUUAUCUCUACACTT against Olfr1513 | inactive: 0.469
GGUUUUCUUUUCUUCUGCCTT against Aar2 | inactive: -1.11
GGGCCAGACAAUCAAACUGTT against Kcne3 | inactive: 1.11
GGUUCUGUCUUUUACUUUCTT against Olfr1496 | inactive: 0.232
GGAUGACAUAUUUUUGGACTT against Mpv17l | inactive: 0.667
GGUAUAGCACCAUCCUGACTT against Olfr651 | inactive: -0.0407
GCUUCUCCGCUUAUUGGUCTT against Slc46a2 | inactive: -0.245
GGCUUUGGCAUGAUUGGCCTT against Tmem214 | active: -2.72
GGCAACUGUGUGCUUGUGATT against Pla2g2d | inactive: -1.3
GCUGUUACUCAGCAGAGAGTT against Bach2 | inactive: -1.02
CCUAUUAAGCGAUCCAGAUTT against Kcnj16 | inactive: -1.47
CCCAUGAAAUUUCUGUGCGTT against Adcy3 | inactive: -1.41
CGUGUAAACGAAGUUAUCATT against G2e3 | inactive: -0.356
GUACUUGAGGCAGAAGGCATT against Cyp3a11 | inactive: 1.35
GGGUAGCUCAGAAAGGUUATT against Tafa3 | inactive: -1.55
CCGGCUACUUCAUACCAGATT against Fxyd6 | inactive: -0.236
GCAGUGUGAAAUCAACUAUTT against Frg1 | inactive: -0.406
CCGCCAAGCUCAACUAUCUTT against Top1mt | inactive: -0.787
GGAUUGUCAGCCAAGAAACTT against Uba7 | inactive: -0.085
CGAGGUCCUUGAUUAUAUCTT against Ciita | inactive: -0.364
GGAAAAGCUUUGUAUUACUTT against Adgra2 | inactive: 1.35

Sequence | z-score
GGUUGUUAUUGGAAAAGCATT against Pdpk1 | inactive: -1.32
GGUGGAAAAUUGAUACAAATT against Stx17 | inactive: 0.689
GGGAUACGACUAAACUAUUTT against Gucy1a1 | inactive: 0.475
GGCAUGGAAUAUGAUGUUATT against Nlrp9b | inactive: -1.72
GCUGUUAACUAUCUGGAUATT against Prokr1 | inactive: 0.59
GGAUGUUUUCCAGAAGAACTT against Map3k6 | inactive: 0.623
GCAAUGAAUUCGACCCAGATT against Ppp2r5e | inactive: -0.175
GGCUACAGCAAGAAGACUUTT against Ctsw | active: 3.08
CGGUUAACUGGAAAGUGCGTT against Tmem132e | active: 2.99
CCUCGAGAGACUUUCAUGGTT against F2 | inactive: -0.475
GCUUCACCACUGGACAAAGTT against Adh1 | inactive: -0.167
GCUUCCUCUUAUCAUAUAATT against Rgs13 | inactive: -0.119
GGACGAGAAGCUCACUGUATT against Oaz2 | inactive: -0.425
GCUAAACACGCUGAAUAUUTT against Phf10 | inactive: 0.107
GCACUUUCAUGGAUAUAAGTT against Rab22a | inactive: -0.366
GGCAAGUUUGUCCAGUGGATT against Phc3 | inactive: -0.726
GGGUAUAAGGUCCCUUUUUTT against Gbp8 | inactive: 0.709
GGAGACUGUAGACUUAAAGTT against Rnf25 | inactive: -1.24
GGGAAAAUUGAAGCUUGUATT against Tfam | inactive: 0.402
GGGAAUCCGGAGAAAAUUATT against Aco1 | inactive: -1.17
CCCAGUUGCUGUUCUUGACTT against Defb40 | inactive: 0.553
CCGUUAAGGUUGAUCUAAUTT against Ccdc34 | inactive: 0.277

Sequence | z-score
GCCACACUUUAAUUUCGCATT against Ttc8 | inactive: -0.457
CAUAUUCCUUGCAUUACAATT against Taok3 | inactive: 0.929
GCAGAUGGAAUUCACCGAATT against Vps13a | inactive: 1.79
GGAAAUCCUGCCAUCAAACTT against Kti12 | inactive: 0.0153
GGAUGUCAAGGUGGCAUUATT against Olfr147 | inactive: -0.534
GGUCAACCUUUAAAAAACATT against Kifc2 | inactive: -1.35
GGAUUGUGCAUUUCAUUGUTT against Mtmr6 | inactive: 0.678
GGACAAAAUAAUGCUUUCUTT against Cnnm1 | inactive: 0.0436
GGUAUCUGUCCAUCCAAAUTT against Tcam1 | inactive: 1.28
GGGAACAAGUUGAGCUACUTT against Ebp | inactive: -0.0574
GGACGUGUUUGGGAUUGUUTT against Csad | inactive: -0.765
CGAAUAUCAUCUCACACUCTT against Olfr875 | inactive: 1.42
GGGAGGAAGAAGAAGGUCATT against Atp1b4 | inactive: -0.193
GCGGCCAUUACCAAAAUUGTT against Olfr520 | inactive: 1
GGUAGUUGUCCUCAUGUGCTT against Scn2b | inactive: 0.53
GGAUGUUUUAUUUCCGUACTT against Enoph1 | inactive: -1.12
GCCUGGUAGUUAGUCAGAATT against Klf11 | active: 2.4
GGUUCAUCAAGAAGUUAGATT against Pip5k1c | inactive: -0.407
GGACCGAUUAAGGAAGGAATT against Ppp1r1a | active: 2.49
CGCCGGAAGUUCUACCACUTT against Tmem205 | inactive: 0.223
GGACAUUAAGAGUGGAAAGTT against Nucb1 | inactive: 0.777
GGGUCAAAGCUCAACGAAATT against Il2rb | inactive: 0.806

Sequence | z-score
GGUUGGAAAGCAUUUUUUATT against Commd2 | inactive: 1.13
GGUUGGUAGGCUUUGGUGUTT against Notum | inactive: 0.657
GGUCCUUGCCAAAACAAUUTT against Crb1 | inactive: -1.13
GGAUUCUCUACCUUACCAUTT against Mfsd8 | inactive: 0.361
GGCUGUGUAAGAUUUGUUUTT against Hmgb1 | inactive: -0.0689
GGUCAAGAGGAGGGUACCUTT against Foxred2 | inactive: 0.313
GGCUUCAGCUAUUGGGCAATT against Vsig1 | active: 2.19
CCUUGAAAAGUCUAAACGUTT against Tmod2 | inactive: 0.375
GGAUCAGACUGUACGAGAGTT against Crygd | inactive: -1.11
GGAACUCUUCUAUUACAGATT against Sfxn4 | inactive: 0.62
GCAAUUUAUGCCCUGCCUUTT against Fastk | inactive: -0.165
GGGUUUUAAUUAUACUGCGTT against Ror2 | inactive: 0.868
GCUAACAUACAUCAUCAAATT against Stx5a | inactive: 0.696
GGACAAGCACCAGGAUUUUTT against Cyct | inactive: 0.676
GGAAAGCAUUGUUUUUUUGTT against Rtkn2 | inactive: -0.649
GCUGGAGAACCUCCCUAAATT against Mrps33 | inactive: 1.14
GGACCACCUAUGGACUACATT against Rbm6 | inactive: 1.09
GGUUAAAAGAGGUGAUUAGTT against Mtfp1 | inactive: 1.9
GGAGAAGAAGGGAAAGCAUTT against Tub | inactive: -1.4
GCCAGGUAUUGGAUGCCAUTT against Stkld1 | inactive: -1.55
GCCCAUUCUGUAGGUGCAUTT against Nrg4 | inactive: 0.677
GCCGAGUUUACUUGUUUGATT against Exd1 | inactive: 0.554

Shown comma-delimited: entries from further up.
Sequence,z-score
CUGUAUGUUAUCUCUACACTT against Olfr1513,inactive: 0.469
GGCAACUGUGUGCUUGUGATT against Pla2g2d,inactive: -1.3
GCAGUGUGAAAUCAACUAUTT against Frg1,inactive: -0.406
GCACUUUCAUGGAUAUAAGTT against Rab22a,inactive: -0.366
CCCAGUUGCUGUUCUUGACTT against Defb40,inactive: 0.553

More results:

Sequence | z-score
GGACCAAGGAUGUUCGCUUTT against Cnr2 | inactive: 1.14
GGUGAUAUUCCUAUCUAAATT against Mbnl1 | inactive: 1.84
GGCAAAGAAAGGCAAGCCUTT against Cyp3a11 | inactive: 1.86
CUAGAAGUGAUGGCUUUCATT against Olfr814 | inactive: -0.316
GGAGUAUCGUAAUGCGGACTT against C4b | inactive: 0.598
GGAAGGAAGAAGACAAUAATT against Nudt16l1 | inactive: -0.438
GGAUCUUGUAGAGCAAAAUTT against Rnmt | inactive: 0.564
GCAGGCAUCGUGUUUACCATT against Cdh20 | inactive: 1.86
GGUUGAGUGUCUUUUCUGCTT against Krt34 | inactive: -1.02
GUACAAGCUCAAGUGCUCGTT against Casz1 | inactive: -0.463
CGGUGAUGCGAUAUAAUGUTT against Serpine2 | inactive: -0.0324
GGACAUACCAGAAGAAAUUTT against Sult1d1 | inactive: -0.463
AAUGUUGAAAACAAGAGCCTT against Vmn1r148 | inactive: -1.51
CGAUCCUCUUUGUUUAUCUTT against Olfr998 | inactive: -1.92
GGAAUUUCUGUGCAUUAAATT against Astn2 | inactive: -1.51
GGUUAUGUACCAGCAAAGUTT against Epdr1 | inactive: 0.821
GCAAGUGAAUACCAGAUCCTT against Pcdhac1 | inactive: -0.0652
GGUGAACUAGAAAUCAGAUTT against 9330154K18Rik | inactive: 0.699
CCUUCGAAGUGCUAUGGGATT against Apbb1 | inactive: 0.858
GCAAGGGAAUGUGUGCCUUTT against Olfr16 | inactive: 0.461
